The source of these data is publication PMC7949150 (The Journal of Biological Chemistry, 2021).

In the experiment the test system is KARPAS-422 xenograft. Briefly: Efficacy in KARPAS-422 xenograft model. The note with it: 25 mg/kg QD PO. In kind it is in vivo, mice.

Consider `CCN(c1cc(-c2ccc(CN3CCOCC3)cc2)cc(C(=O)NCc2c(C)cc(C)[nH]c2=O)c1C)C1CCOCC1` [Tazemetostat], for which the “reduction in tumor volume relative to vehicle” value was found to be 49%.
